Data: patent US20240252583A1 (priority 2021, published 2024)

Test: peptide made by a vendor (peptide synthesis; 2-Chlorotrityl chloride resin)
Settings: whole synthesis, HPLC, amino acid analysis, mass spectroscopy, acetate salt

Q: For “PEPTIDE1{[dT].[dT].[dN].[dY].[dT]}$$$$V2.0”, which “final purity (method not given)” value is on record?
A: The value was 98.8%.

HELM strings list residues between dots; [ac] is acetyl, [am] amide, other brackets name non-standard units.
